{"source": "PubChem BioAssay AID504408", "about": "(Broad Institute, 2011)", "note": "Out of some 300,000 compounds screened, about 5,200 (1.7%) were called active. The shares of active, inactive and inconclusive entries below differ from those in the screen.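 The calls were made as follows: active = mean replicate activation of at least 50% with a set share of replicates each reaching 50%; inconclusive = only one of those two conditions met; inactive = mean below 50% and too few replicates reaching it.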"}
{"assay": "HSF-1 activators, primary screen, NIH3T3-HGL cells, MG132 stress, luminescence, single point (AID 504408);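 also: 0% = median of the neutral control wells and 100% = twice that signal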", "details": "NIH3T3-HGL HSF-1 luciferase reporter, MG132, 8 h; at 9 µM; active compounds read high; 100% = twice DMSO control signal"}
{"smiles": "Cc1ccc(NC(=O)c2cc3c(s2)CCCC3)cc1", "activation": "inconclusive: 50.2%"}
{"smiles": "O=C(Nc1nnc(Cc2ccccc2)s1)c1cccs1", "activation": "inconclusive: 50.5%"}
{"smiles": "COC(=O)c1ccc(-c2ccc(OC)c([C@H]3[C@H]4C=CC[C@@H](C)[C@@H]4C(=O)N3Cc3ccccc3)c2)cc1", "activation": "inactive: -22.8%"}
{"smiles": "O=C(Nc1cccc(O)c1)c1ccc(Br)cc1", "activation": "inactive: 27.9%"}
{"smiles": "O=S(=O)(Nc1cccc2ccccc12)c1cccc2nonc12", "activation": "inconclusive: 51.8%"}
{"smiles": "COc1ccc(/C=C2\\Sc3ccc(C(=O)NCCCN4CCCC4)cc3N(C)C2=O)cc1OC", "activation": "inactive: 2.15%"}
{"smiles": "O=C(Nc1ccc(F)cc1)N1CCC(c2nc3c(nnn3Cc3ccccc3Cl)c(=O)[nH]2)CC1", "activation": "inconclusive: 50.1%"}
{"smiles": "Cc1nn(C(CC(=O)O)C(=O)O)c(C)c1Br", "note": "(configuration not stated)", "activation": "inconclusive: 54.5%"}
{"smiles": "Cc1cccc(NC(=O)CN2CCN(C(=O)C3CCCO3)CC2)c1C", "note": "(configuration not stated)", "activation": "inactive: 3.6%"}
{"smiles": "CCN(CC)C(=O)C1c2ccccc2Oc2ccccc21", "activation": "inactive: 3.62%"}
{"smiles": "Cc1nc2c(C(=O)NCc3ccco3)cnn2c(C)c1Cc1ccc(F)cc1Cl", "activation": "inconclusive: 52.4%"}
{"smiles": "COc1cc(C(=O)Sc2ccc(C)cc2)cc(OC)c1OC", "activation": "inconclusive: 53.2%"}
{"smiles": "Cc1ccc(C(=O)Nc2ccc(C(=O)N/N=C/c3ccccn3)cc2)cc1", "activation": "inconclusive: 50.4%"}
{"smiles": "COc1ccc2oc(C(=O)NC3CCCCC3)c(C)c2c1", "activation": "active: 60.8%"}
{"smiles": "COc1ccc(-n2cnc3sc(-c4ccccc4)cc3c2=O)cc1", "activation": "inconclusive: 50.7%"}
{"smiles": "CCCn1nnc(NC(=O)c2sc3ccccc3c2Cl)n1", "activation": "inconclusive: 53.6%"}
{"smiles": "Cc1ccc(N(CC(=O)NCCc2ccc(F)cc2)S(=O)(=O)c2ccc(Cl)c([N+](=O)[O-])c2)c(C)c1", "activation": "active: 89.4%"}
{"smiles": "CCn1c(SCC(=O)Nc2cccc(F)c2)nc2c(c1=O)SC(C)C2", "note": "(configuration not stated)", "activation": "inconclusive: 51.9%"}
{"smiles": "O=C(NC1CCCCC1)c1ccc2snnc2c1", "activation": "inconclusive: 51.1%"}
{"smiles": "CC(=O)NC(=O)NC1OC(=O)C(Cl)=C1Cl", "note": "(configuration not stated)", "activation": "inconclusive: 51.3%"}
{"smiles": "O=c1[nH]c2ccc(S(=O)(=O)Nc3ccc(-c4nnc5n4CCCCC5)cc3)cc2o1", "activation": "inconclusive: 52.4%"}
{"smiles": "Cc1ccn2cc(-c3cccc(NC(=O)C(C)C)c3)nc2c1", "activation": "inactive: 42.9%"}
{"smiles": "CCCNC(=O)c1ccc2c(=O)c(O)c(-c3cccc(Br)c3)[nH]c2c1", "activation": "inactive: -61%"}
{"smiles": "CC1CCCC(NC(=O)C2CCN(S(=O)(=O)N3CCCCCC3)CC2)C1C", "note": "(configuration not stated)", "activation": "inactive: -7.89%"}
{"smiles": "COc1cccc(C2c3c(oc4ccccc4c3=O)C(=O)N2Cc2ccco2)c1", "note": "(configuration not stated)", "activation": "active: 58.7%"}
{"smiles": "CC(C)c1ccc(C(=O)N(c2ccccn2)C(C)c2ccco2)cc1", "note": "(configuration not stated)", "activation": "inactive: -12.3%"}
{"smiles": "Cc1ccc(-c2noc(CC(=O)c3ccc([N+](=O)[O-])cc3)n2)cc1", "activation": "inactive: -0.739%"}
{"smiles": "Cc1ccc(S(=O)(=O)CCC(=O)OC(C)C(=O)NC2CCCCC2C)cc1", "note": "(configuration not stated)", "activation": "inactive: 18.8%"}
{"smiles": "COc1ccc2[nH]c(C)c(CCNc3ccc(C(F)(F)F)cc3[N+](=O)[O-])c2c1", "activation": "active: 60.9%"}
{"smiles": "Cc1cc(C)nc(SCC(=O)N/N=C\\C(Br)=C\\c2ccccc2)n1", "activation": "inconclusive: 51.4%"}
{"smiles": "CC(=O)Nc1ccc2nc(C3CC3)n(Cc3ccc(Cl)cc3)c(=O)c2c1", "activation": "inconclusive: 62.5%"}
{"smiles": "CCCCOc1ccc(S(=O)(=O)N2CCCCCC2)cc1", "activation": "active: 66%"}
{"smiles": "COC(=O)c1cc(=O)n(CCc2ccccc2F)c(=Nc2ccc(F)c(Cl)c2)s1", "activation": "inconclusive: 51.6%"}
{"smiles": "Cc1ccc(NC(=O)CN(C)C(=O)Cn2ncc(Cl)c(Cl)c2=O)cc1", "activation": "active: 52.2%"}
{"smiles": "CCOC(=O)CSc1cc(-c2ccccc2)nc2ncnn12", "activation": "active: 75.4%"}
{"smiles": "CSc1cccc(NC(=O)c2ccco2)c1", "activation": "inconclusive: 93.1%"}
{"smiles": "COc1ccc(/C=C/C(=O)OC2CCCN(C)C2)cc1", "note": "(configuration not stated)", "activation": "inconclusive: 50.5%"}
{"smiles": "O=C(NCCc1ccccc1)c1ccncc1", "activation": "inactive: -0.507%"}
{"smiles": "O=C(Cc1cnn(-c2ccccc2)c1)c1ccc(O)c(O)c1O", "activation": "inconclusive: 51.3%"}
{"smiles": "Cc1ccc2c(Cl)c(C(=O)NCC3CCCO3)sc2c1", "note": "(configuration not stated)", "activation": "active: 54.1%"}
{"smiles": "COc1ccccc1CNC(=O)c1c(N)n(CCCN2CCOCC2)c2nc3ccccc3nc12", "activation": "inconclusive: 50.2%"}
{"smiles": "CC(/C=C/c1ccco1)=N/NC(=O)c1ccccc1Cl", "activation": "inconclusive: 52.7%"}
{"smiles": "COc1ccc(Nc2nc(S(=O)(=O)c3ccc(C)cc3)c(Cl)s2)cc1", "activation": "inactive: 34.2%"}
{"smiles": "CCOc1ccc2[nH]c3c(N4CCc5ccccc5C4)ncnc3c2c1", "activation": "inconclusive: 60%"}
{"smiles": "Cc1cccc(C(=O)N/N=C/c2ccccn2)c1", "activation": "inconclusive: 51.3%"}
{"smiles": "Cc1nc2ccccc2c(N)c1C(=O)/C=C/c1ccccc1", "activation": "active: 63.9%"}
{"smiles": "N=c1c2c(-c3ccccc3)c(-c3ccccc3)n(Cc3ccco3)c2ncn1CCCN1CCOCC1", "activation": "active: 102%"}
